{
  "sequences": {"note": "Chains of the proteins cited; added tags and fusions are not shown.", "UniProt P0A9A6": "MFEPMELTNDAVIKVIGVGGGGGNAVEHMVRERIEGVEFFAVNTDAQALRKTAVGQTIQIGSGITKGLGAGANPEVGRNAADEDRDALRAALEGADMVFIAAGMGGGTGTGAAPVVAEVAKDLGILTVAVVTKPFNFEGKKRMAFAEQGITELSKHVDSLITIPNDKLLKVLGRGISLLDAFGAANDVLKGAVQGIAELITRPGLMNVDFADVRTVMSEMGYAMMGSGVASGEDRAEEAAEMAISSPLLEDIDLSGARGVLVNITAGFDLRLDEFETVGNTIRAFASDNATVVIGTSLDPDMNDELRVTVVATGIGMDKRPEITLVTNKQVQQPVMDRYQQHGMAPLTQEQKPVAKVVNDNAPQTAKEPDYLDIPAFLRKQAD"},
  "source": "paper PMC6521040",
  "biological_target": "T1, CbtA (Ec), CbtA toxin from E. coli strain BW25113 (E. coli strain BW25113) (UniProt P64524)",
  "T1 sequence": "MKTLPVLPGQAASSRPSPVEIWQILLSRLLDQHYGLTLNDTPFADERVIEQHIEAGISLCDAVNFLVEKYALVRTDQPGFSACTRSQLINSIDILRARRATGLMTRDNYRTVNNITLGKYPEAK",
  "test": "two-hybrid; GAL4 DNA binding domain bait and activation domain prey fusions co-transformed into S. cerevisiae strain Y2H gold; growth on SD/-Leu/-Trp and SD/-Leu/-Trp/-His plates, 30 °C, 3 days",
  "note": "No constants are given. Whether binding was seen depends on the method and setting. Some binding calls cover weakened binding; strength is not graded here.",
  "data": [
    {"substance": "FtsZ (Ec), cytoskeletal protein FtsZ from E. coli strain BW25113 (from UniProt P0A9A6 1-383)", "values": [
      {"measurement": "binding", "result": "binds"}
    ]}
  ]
}
